Test [1] has as its target Tle4 (endogenous, primary rat Schwann cells) (rat (endogenous in primary rat Schwann cells)) (UniProt Q07141). Kind of test: co-IP; lysates of primary rat Schwann cell cultures in proliferative conditions, endogenous proteins; precipitation with anti-Tle4 antibody; blot with anti-Sox10 antiserum; varied salt, detergent and antibodies were also tried.
Test [2] deals with myc-Tle4 (mouse) (UniProt Q62441). In words: co-IP; lysates of HEK293T cells overexpressing myc-Tle4 and Sox10 with or without T7-Hes1; precipitation with anti-T7 antibody in the standard setup shown; different salt and detergent concentrations and different precipitating antibodies were also tried; blots with anti-T7, anti-myc and anti-Sox10.
The target of test [3] is T1, T7-Hes1 (mouse) (UniProt P35428).
T1 sequence: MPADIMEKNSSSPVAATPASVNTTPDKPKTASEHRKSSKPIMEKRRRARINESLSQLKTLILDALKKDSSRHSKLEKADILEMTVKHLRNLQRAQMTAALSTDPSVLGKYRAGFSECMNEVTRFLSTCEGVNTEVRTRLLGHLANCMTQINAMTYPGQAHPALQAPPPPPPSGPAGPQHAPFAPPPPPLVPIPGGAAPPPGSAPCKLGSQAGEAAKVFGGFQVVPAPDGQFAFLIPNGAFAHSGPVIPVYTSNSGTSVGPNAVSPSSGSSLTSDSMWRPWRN
The description is as above.

Amino acid sequences for entries named in this document (tags omitted).
UniProt Q07141: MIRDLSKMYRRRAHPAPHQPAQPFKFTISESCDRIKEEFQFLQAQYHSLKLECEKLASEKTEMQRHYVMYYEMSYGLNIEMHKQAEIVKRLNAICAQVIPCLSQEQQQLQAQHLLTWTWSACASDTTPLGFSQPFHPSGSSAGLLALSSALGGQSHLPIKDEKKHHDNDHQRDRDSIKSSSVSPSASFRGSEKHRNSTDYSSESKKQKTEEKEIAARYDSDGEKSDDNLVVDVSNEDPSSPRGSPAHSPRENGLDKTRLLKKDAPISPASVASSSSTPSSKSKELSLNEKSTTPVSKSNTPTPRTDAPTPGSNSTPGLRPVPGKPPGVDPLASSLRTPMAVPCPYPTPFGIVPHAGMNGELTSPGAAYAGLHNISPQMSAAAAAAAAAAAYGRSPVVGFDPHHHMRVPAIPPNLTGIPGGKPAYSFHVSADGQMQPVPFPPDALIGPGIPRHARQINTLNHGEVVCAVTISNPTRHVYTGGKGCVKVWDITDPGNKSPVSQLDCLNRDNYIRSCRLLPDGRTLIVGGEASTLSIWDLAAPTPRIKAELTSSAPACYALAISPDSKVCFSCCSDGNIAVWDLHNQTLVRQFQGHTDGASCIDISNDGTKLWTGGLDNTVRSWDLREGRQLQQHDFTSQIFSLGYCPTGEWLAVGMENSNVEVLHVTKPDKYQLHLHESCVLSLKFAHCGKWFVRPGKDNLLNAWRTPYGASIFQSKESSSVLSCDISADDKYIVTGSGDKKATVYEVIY
UniProt Q62441: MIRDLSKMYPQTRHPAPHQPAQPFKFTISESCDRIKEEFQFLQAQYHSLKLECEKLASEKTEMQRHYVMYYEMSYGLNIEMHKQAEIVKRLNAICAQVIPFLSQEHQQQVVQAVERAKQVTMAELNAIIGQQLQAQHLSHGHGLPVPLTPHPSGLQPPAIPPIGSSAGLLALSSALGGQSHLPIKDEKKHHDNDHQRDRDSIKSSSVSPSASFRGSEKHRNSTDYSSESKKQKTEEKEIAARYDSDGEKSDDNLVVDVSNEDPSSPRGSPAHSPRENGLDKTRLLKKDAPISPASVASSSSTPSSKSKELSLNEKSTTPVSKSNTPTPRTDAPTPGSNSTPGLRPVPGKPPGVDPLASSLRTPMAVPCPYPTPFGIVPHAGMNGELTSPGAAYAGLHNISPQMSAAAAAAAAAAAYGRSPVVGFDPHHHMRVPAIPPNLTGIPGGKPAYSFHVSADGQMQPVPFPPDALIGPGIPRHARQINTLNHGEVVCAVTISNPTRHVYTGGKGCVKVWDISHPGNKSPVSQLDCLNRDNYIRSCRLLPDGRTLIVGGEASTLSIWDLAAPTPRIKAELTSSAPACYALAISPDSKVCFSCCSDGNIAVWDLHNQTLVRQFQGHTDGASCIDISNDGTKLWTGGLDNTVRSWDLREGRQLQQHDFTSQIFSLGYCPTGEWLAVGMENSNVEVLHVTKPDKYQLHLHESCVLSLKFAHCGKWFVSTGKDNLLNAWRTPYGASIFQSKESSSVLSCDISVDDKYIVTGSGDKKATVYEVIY
UniProt O55170: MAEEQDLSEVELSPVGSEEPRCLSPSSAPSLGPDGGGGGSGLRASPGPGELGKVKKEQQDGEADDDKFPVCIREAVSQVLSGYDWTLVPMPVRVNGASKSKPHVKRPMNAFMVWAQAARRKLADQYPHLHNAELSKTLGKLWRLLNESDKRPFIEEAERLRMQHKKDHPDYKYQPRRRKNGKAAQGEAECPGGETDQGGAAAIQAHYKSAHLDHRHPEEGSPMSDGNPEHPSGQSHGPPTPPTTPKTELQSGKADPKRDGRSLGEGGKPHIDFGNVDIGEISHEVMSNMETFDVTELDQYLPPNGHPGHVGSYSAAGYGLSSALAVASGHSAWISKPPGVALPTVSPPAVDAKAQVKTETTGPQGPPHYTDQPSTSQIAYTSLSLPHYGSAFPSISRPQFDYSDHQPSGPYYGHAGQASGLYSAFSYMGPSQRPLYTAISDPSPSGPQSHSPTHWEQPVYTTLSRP

The target of test [4] is T1, T7-Hes1 (mouse). In words: co-IP; whole cell lysates of HEK293T cells overexpressing myc-Tle4, T7-Hes1 or both; precipitation with anti-T7 or anti-myc antibody and Protein A- or G-sepharose; blots with anti-T7 and anti-myc.
In test [5] the target is myc-Tle4 (mouse) (UniProt Q62441). The description is as above.

No constants are given. Whether binding was seen depends on the method and setting. In cells and extracts the contact can be indirect. Some results given as binding are weak or reduced against the parent protein; the word gives no strength.

On to “Sox10 (endogenous, primary rat Schwann cells) (from UniProt O55170 1-466)”, for which, in test [1], the binding entry was “no binding”.

In the case of “Sox10 (pCMV5-Sox10, overexpressed) (from UniProt O55170 1-466)”, the binding result in test [2] and in test [3] was “no binding” each time.

myc-Tle4 (from UniProt Q62441 1-773): in test [4], the binding entry was “binds”.

B1: T7-Hes1 (protein, UniProt P35428 1-282)
chain: T1 sequence
In the case of B1, the binding result in test [5] is “binds”.
